Assay results: the supplement of paper PMC12819154, “High-throughput peptide-centric local stability assay extends protein–ligand identification to membrane proteins, tissues and bacteria” (Nature Structural & Molecular Biology, 2025)
Some of the results follow. Most entries show no effect beyond the scatter of the controls.

Protein sequences, listed by entry. Tags and fused reporters are not part of them. Lines headed by an entry give the natural chain unless they say otherwise; changes in a name come on top.
UniProt Q9UKF6: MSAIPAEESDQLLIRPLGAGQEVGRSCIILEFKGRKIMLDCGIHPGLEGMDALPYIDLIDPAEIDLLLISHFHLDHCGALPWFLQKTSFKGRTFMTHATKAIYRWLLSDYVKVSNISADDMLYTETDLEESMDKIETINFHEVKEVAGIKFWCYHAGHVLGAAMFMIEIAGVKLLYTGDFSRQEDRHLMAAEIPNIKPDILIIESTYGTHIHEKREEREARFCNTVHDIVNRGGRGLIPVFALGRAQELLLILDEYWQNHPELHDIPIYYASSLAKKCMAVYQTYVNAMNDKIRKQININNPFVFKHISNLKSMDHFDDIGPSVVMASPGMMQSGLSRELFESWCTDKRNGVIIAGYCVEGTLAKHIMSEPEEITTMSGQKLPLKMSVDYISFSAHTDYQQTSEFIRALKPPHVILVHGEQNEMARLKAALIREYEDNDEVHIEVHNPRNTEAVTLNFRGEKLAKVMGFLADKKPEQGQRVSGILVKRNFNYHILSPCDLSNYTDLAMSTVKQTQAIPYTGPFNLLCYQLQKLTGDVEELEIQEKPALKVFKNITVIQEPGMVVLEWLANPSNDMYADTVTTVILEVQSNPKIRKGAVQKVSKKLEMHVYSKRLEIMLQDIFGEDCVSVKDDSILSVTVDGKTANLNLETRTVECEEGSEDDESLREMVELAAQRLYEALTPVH
UniProt Q9UPY5: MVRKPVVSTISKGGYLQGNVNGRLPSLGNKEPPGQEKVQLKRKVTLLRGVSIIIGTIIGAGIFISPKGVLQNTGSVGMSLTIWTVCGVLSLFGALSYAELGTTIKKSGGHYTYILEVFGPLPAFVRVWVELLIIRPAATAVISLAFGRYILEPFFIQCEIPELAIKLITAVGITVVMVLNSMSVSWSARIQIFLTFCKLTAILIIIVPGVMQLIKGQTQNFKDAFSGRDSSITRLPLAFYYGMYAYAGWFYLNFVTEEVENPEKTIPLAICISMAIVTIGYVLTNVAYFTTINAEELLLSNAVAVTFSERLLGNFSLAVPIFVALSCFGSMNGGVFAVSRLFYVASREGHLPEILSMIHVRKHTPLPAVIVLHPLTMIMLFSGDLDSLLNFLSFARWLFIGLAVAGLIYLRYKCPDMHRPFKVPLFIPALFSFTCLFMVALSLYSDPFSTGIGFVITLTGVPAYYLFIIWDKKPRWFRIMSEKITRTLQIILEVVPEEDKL
UniProt Q9UNF0: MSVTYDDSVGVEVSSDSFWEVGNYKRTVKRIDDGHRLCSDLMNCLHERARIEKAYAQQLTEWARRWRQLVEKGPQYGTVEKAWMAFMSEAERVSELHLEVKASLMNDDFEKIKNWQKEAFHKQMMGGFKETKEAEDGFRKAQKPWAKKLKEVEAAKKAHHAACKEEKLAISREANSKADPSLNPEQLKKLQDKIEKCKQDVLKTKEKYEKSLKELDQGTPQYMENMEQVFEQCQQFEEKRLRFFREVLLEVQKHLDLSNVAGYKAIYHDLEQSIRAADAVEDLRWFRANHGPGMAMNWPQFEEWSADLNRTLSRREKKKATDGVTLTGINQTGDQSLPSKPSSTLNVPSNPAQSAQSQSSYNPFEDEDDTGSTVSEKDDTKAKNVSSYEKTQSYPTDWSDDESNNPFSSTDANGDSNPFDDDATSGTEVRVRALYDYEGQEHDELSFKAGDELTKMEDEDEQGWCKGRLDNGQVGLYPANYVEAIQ
UniProt Q9ULT0: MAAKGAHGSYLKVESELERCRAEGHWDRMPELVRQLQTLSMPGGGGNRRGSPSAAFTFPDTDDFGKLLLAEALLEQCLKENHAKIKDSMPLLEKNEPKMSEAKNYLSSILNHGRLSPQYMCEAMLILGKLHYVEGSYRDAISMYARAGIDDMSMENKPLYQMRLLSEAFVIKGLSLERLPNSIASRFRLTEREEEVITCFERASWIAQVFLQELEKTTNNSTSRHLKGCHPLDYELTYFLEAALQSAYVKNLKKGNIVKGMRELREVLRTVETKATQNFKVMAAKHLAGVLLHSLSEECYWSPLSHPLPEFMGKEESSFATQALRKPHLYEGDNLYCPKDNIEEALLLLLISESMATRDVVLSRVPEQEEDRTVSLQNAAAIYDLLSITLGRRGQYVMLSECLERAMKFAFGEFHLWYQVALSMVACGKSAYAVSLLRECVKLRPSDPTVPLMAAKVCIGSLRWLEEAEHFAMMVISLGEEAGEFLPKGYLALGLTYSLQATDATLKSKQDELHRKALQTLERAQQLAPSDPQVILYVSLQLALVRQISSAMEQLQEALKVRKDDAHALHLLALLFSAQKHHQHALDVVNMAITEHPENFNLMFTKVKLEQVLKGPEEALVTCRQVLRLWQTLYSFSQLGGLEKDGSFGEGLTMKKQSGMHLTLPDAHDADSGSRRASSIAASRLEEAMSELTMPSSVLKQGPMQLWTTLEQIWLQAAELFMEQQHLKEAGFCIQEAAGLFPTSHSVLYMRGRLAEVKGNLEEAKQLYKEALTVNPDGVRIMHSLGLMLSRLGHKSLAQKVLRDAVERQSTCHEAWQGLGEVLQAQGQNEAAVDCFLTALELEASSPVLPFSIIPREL
UniProt Q9Y2J8, whole entry: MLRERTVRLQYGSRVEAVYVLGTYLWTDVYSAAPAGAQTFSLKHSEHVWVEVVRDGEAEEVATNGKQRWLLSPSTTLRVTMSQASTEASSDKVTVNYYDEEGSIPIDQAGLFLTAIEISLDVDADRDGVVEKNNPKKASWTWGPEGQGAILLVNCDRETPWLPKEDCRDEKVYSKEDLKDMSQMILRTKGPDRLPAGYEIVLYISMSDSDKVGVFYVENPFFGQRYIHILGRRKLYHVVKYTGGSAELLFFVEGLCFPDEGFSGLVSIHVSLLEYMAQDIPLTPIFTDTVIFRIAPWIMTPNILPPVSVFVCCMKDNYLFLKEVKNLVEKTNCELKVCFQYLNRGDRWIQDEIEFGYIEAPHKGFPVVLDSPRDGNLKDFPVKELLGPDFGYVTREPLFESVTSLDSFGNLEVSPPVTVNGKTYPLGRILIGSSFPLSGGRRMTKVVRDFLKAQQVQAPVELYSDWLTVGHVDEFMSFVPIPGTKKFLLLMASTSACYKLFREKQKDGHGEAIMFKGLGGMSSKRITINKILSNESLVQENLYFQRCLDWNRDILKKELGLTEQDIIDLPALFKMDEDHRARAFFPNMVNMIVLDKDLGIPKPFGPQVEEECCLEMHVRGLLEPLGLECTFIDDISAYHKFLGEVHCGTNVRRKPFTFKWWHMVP
UniProt Q9ULU4: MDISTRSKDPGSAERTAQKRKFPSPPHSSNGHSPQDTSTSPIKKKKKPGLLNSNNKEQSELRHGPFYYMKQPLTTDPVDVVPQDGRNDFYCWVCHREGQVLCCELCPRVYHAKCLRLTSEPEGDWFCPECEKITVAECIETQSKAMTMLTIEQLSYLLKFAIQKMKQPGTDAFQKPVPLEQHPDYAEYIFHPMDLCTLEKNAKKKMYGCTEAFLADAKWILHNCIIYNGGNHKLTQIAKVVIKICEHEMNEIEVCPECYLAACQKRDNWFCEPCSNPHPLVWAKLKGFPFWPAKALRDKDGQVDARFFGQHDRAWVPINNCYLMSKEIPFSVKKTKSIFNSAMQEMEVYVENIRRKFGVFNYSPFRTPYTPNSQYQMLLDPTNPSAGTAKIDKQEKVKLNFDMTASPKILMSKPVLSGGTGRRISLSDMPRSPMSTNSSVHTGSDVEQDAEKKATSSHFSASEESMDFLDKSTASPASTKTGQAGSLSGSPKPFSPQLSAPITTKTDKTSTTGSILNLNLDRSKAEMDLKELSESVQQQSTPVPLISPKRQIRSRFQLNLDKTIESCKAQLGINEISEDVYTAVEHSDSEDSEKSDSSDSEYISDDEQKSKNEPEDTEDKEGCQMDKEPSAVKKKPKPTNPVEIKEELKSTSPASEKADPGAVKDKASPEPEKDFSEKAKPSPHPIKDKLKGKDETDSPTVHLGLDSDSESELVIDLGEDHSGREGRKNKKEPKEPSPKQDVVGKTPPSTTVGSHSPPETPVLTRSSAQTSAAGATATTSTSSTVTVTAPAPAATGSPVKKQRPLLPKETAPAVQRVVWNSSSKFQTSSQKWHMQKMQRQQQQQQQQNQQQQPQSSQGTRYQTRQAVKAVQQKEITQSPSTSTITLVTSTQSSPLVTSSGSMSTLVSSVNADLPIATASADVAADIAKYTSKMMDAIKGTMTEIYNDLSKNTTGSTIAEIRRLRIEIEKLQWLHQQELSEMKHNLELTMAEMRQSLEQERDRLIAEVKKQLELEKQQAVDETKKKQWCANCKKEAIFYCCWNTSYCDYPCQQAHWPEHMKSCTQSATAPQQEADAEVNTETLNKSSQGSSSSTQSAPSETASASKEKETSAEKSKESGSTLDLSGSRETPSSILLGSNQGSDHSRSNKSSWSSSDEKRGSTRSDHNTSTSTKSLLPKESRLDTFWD
UniProt Q9Y2A4: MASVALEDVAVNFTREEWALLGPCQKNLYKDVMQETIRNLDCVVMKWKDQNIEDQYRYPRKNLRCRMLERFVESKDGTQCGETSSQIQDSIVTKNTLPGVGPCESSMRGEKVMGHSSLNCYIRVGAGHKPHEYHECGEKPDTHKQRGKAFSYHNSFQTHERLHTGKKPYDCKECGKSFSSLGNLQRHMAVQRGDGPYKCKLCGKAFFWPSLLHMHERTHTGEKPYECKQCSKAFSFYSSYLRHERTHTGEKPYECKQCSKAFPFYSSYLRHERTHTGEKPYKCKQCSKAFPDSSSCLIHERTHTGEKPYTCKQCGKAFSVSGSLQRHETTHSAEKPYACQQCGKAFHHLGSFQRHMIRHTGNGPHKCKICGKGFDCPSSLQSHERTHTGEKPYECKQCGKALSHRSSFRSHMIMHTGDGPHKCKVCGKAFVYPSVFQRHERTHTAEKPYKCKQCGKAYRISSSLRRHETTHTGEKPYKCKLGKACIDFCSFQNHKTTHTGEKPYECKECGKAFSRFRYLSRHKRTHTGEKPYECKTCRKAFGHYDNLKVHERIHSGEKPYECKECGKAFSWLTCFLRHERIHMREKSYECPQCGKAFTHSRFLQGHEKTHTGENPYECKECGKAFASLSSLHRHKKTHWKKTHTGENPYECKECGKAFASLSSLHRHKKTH
UniProt Q9UKG1: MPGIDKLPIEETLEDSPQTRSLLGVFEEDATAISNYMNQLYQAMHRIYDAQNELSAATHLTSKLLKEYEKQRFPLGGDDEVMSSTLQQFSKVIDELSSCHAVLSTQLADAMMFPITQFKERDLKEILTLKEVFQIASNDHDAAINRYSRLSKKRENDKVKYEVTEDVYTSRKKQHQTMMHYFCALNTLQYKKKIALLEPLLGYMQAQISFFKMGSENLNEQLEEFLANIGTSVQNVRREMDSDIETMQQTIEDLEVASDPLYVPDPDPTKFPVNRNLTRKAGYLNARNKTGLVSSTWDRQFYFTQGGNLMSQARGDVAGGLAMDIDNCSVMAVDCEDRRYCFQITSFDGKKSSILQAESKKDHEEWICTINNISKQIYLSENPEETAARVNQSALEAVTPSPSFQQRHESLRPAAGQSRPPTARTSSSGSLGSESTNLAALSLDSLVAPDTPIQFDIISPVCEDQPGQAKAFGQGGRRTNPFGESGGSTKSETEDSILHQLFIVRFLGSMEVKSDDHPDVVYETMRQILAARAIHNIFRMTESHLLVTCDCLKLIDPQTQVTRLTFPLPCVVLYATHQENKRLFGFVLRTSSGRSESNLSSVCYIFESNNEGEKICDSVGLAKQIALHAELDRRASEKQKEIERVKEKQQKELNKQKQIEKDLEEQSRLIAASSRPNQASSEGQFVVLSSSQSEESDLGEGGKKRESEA
UniProt Q9UM00: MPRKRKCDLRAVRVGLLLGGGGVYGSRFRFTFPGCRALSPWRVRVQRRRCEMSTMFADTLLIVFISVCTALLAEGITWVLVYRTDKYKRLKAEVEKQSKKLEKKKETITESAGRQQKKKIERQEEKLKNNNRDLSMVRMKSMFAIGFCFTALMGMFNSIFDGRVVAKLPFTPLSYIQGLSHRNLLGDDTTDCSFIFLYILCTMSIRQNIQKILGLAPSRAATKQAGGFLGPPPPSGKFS
UniProt Q9Y2Y0: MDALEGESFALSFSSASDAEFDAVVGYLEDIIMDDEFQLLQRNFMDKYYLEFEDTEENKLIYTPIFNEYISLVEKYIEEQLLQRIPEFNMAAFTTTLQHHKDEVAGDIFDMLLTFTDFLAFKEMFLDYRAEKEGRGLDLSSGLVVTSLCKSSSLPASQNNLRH
UniProt Q9UKU7: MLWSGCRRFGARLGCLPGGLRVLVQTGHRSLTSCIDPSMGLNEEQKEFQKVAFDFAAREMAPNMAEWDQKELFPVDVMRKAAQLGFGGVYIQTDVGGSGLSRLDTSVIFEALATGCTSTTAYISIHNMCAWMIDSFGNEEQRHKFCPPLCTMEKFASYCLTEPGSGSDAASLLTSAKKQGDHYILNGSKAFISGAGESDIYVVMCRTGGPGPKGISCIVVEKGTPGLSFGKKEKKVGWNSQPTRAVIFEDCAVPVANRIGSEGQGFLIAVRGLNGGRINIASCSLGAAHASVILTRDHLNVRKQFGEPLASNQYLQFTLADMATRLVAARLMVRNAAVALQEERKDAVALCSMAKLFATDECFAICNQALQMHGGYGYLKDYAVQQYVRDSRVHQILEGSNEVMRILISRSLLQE

Compound: CN[C@@H]1C[C@H]2O[C@@](C)([C@@H]1OC)n1c3ccccc3c3c4c(c5c6ccccc6n2c5c31)C(=O)NC4 [staurosporine]
Assay: log2 fold change of tryptic peptide abundance, ligand vs vehicle (limited proteolysis) (log2 ratio); higher = more trypsin-susceptible (destabilized)
Details: ligand concentration: 20 uM; sample: K562 cleared lysate; digestion: 4 min, 22 C (HT-PELSA RT4min, Orbitrap Astral)

With “TMEM98 (peptide sequence: LVAMTMGSGAK, peptide start residue: 108) (UniProt Q9Y2Y6)” as the target, how does the log2 fold change read?
Its log2 fold change is 0.11.

Which log2 fold change does the source give for “C19orf53 (peptide sequence: NLEVGIRK, peptide start residue: 52) (UniProt Q9UNZ5)” here?
Its log2 fold change is 0.412.

“UniProt Q9UPN6 (peptide sequence: KGDNVPQVNGENTER, peptide start residue: 1207)” was tested. Which log2 fold change did it give?
Its log2 fold change is -0.143.

With “CPSF3 (peptide sequence: GLIPVFALGR, peptide start residue: 236) (UniProt Q9UKF6)” as the target, how does the log2 fold change read?
Its log2 fold change is 0.237.

With “UniProt Q9UKN5 (peptide sequence: INSAVYSADESLSAHK, peptide start residue: 786)” as the target, how does the log2 fold change read?
Its log2 fold change is -0.268.

Which log2 fold change does the source give for “SLC7A11 (peptide sequence: LPSLGNKEPPGQEK, peptide start residue: 24) (UniProt Q9UPY5)” here?
The log2 fold change was -0.696.

“PACSIN2 (peptide sequence: KAQKPWAK, peptide start residue: 140) (UniProt Q9UNF0)” was tested. Which log2 fold change did it give?
Its log2 fold change is 0.547.

“SHOC2 (peptide sequence: INKIPFGIFSR, peptide start residue: 367) (UniProt Q9UQ13)” was tested. Which log2 fold change did it give?
The log2 fold change was 0.494.

Which log2 fold change does the source give for “MTMR6 (peptide sequence: CGQLDGDPK, peptide start residue: 383) (UniProt Q9Y217)” here?
Its log2 fold change is 0.496.

“TTC7A (peptide sequence: LLSEAFVIK, peptide start residue: 164) (UniProt Q9ULT0)” was tested. Which log2 fold change did it give?
The log2 fold change was -0.142.

“CHKB (peptide sequence: AAEATAVAGSGAVGGCLAK, peptide start residue: 2) (UniProt Q9Y259)” was tested. Which log2 fold change did it give?
The log2 fold change was -0.378.

Which log2 fold change does the source give for “CIZ1 (peptide sequence: DISREEWK, peptide start residue: 770) (UniProt Q9ULV3)” here?
Its log2 fold change is -0.361.

Which log2 fold change does the source give for “UniProt Q9Y2J8 (peptide sequence: YIHILGR, peptide start residue: 226)” here?
Its log2 fold change is 0.0692.

With “ZMYND8 (peptide sequence: ETAPAVQR, peptide start residue: 809) (UniProt Q9ULU4)” as the target, how does the log2 fold change read?
Its log2 fold change is -0.164.

For “UniProt Q9Y2A4 (peptide sequence: AFVYPSVFQR, peptide start residue: 401)”, which log2 fold change is on record?
Its log2 fold change is -0.0254.

With “PSME2 (peptide sequence: KQVEVFRQNLFQEAEEFLYR, peptide start residue: 15) (UniProt Q9UL46)” as the target, how does the log2 fold change read?
The log2 fold change was 0.506.

How did the log2 fold change turn out when “UniProt Q9UKT7 (peptide sequence: TLGLISTARPSFMDLPK, peptide start residue: 141)” was run?
Its log2 fold change is 0.417.

Which log2 fold change does the source give for “WDR3 (peptide sequence: NLLVTSGKDTMVK, peptide start residue: 162) (UniProt Q9UNX4)” here?
Its log2 fold change is -0.124.

For “AP4E1 (peptide sequence: DQSQVLTQSKEEKEK, peptide start residue: 749) (UniProt Q9UPM8)”, which log2 fold change is on record?
Its log2 fold change is -0.212.

With “UniProt Q9UPY6 (peptide sequence: FYTDPSYFFDLWKEK, peptide start residue: 149)” as the target, how does the log2 fold change read?
The log2 fold change was -0.102.

With “UniProt Q9Y333 (peptide sequence: MLFYSFFK, peptide start residue: 1)” as the target, how does the log2 fold change read?
Its log2 fold change is 0.197.

“MKLN1 (peptide sequence: QHNYTEAFESLQKK, peptide start residue: 186) (UniProt Q9UL63)” was tested. Which log2 fold change did it give?
Its log2 fold change is 0.321.

For “APPL1 (peptide sequence: TNPFGESGGSTK, peptide start residue: 479) (UniProt Q9UKG1)”, which log2 fold change is on record?
Its log2 fold change is -0.122.

“GINS2 (peptide sequence: VSADSFVR, peptide start residue: 130) (UniProt Q9Y248)” was tested. Which log2 fold change did it give?
The log2 fold change was -0.128.

“COG5 (peptide sequence: KPDYDPEK, peptide start residue: 465) (UniProt Q9UP83)” was tested. Which log2 fold change did it give?
The log2 fold change was 0.407.

With “ZNF148 (peptide sequence: SGMNSPLR, peptide start residue: 661) (UniProt Q9UQR1)” as the target, how does the log2 fold change read?
The log2 fold change was 0.626.

With “BAG5 (peptide sequence: ARYHTLTK, peptide start residue: 148) (UniProt Q9UL15)” as the target, how does the log2 fold change read?
Its log2 fold change is -0.99.

How did the log2 fold change turn out when “SAMD4A (peptide sequence: TLLDISGYR, peptide start residue: 560) (UniProt Q9UPU9)” was run?
Its log2 fold change is 0.149.

With “SUGT1 (peptide sequence: KGICEYHEK, peptide start residue: 85) (UniProt Q9Y2Z0)” as the target, how does the log2 fold change read?
The log2 fold change was 0.301.

How did the log2 fold change turn out when “KLHL20 (peptide sequence: CTNIRPGETGMDVTSR, peptide start residue: 9) (UniProt Q9Y2M5)” was run?
Its log2 fold change is 0.604.

Which log2 fold change does the source give for “TMCO1 (peptide sequence: ETITESAGR, peptide start residue: 106) (UniProt Q9UM00)” here?
The log2 fold change was -0.156.

“DDX19B (peptide sequence: LKPQLLQGVYAMGFNRPSK, peptide start residue: 98) (UniProt Q9UMR2)” was tested. Which log2 fold change did it give?
Its log2 fold change is 0.181.

“ARL2BP (peptide sequence: SSSLPASQNNLRH, peptide start residue: 151) (UniProt Q9Y2Y0)” was tested. Which log2 fold change did it give?
The log2 fold change was 0.0847.

Which log2 fold change does the source give for “ACAD8 (peptide sequence: VAFDFAAR, peptide start residue: 51) (UniProt Q9UKU7)” here?
The log2 fold change was -0.164.

How did the log2 fold change turn out when “CDV3 (peptide sequence: LQLDNQYAVLENQK, peptide start residue: 238) (UniProt Q9UKY7)” was run?
Its log2 fold change is -0.136.

How did the log2 fold change turn out when “ZNF652 (peptide sequence: GQSEDNFLR, peptide start residue: 586) (UniProt Q9Y2D9)” was run?
Its log2 fold change is -0.0819.
